Data taken from patent US9044389B2, “Isoxazoline derivatives as pesticides” (Novartis AG, priority 2008, dated 2015).
Some of these results come from one statement about several compounds together. At least one structure is not confirmed: it was looked up by name or label, or the drawing left a doubt.

Columns and labels:
[1] = system: Ctenocephalides felis (Cat Flea); experiment: Activity in vitro against Ctenocephalides felis (cat flea), artificial blood feeding system; conditions: 100 ppm; adult fleas fed on treated blood for 24 hours; dead fleas counted
[2] = system: Rhipicephalus sanguineus (Dog Tick); experiment: Activity in vitro against Rhipicephalus sanguineus (dog tick), adult contact test; conditions: 640 ppm; adult ticks, 10 minutes contact, 7 days at 28° C. and 80% relative humidity
[3] = system: Rhipicephalus sanguineus nymphs; experiment: Activity in vivo against Rhipicephalus sanguineus nymphs on Mongolian gerbils (per oral application); conditions: 100 mg/kg orally by gavage, tick number reduction vs placebo, Abbot's formula

| SMILES | efficacy (EC80) [1] | efficacy (EC80) [2] | efficacy (EC90) [3] |
| --- | --- | --- | --- |
| Cc1cc(C2=NOC(c3cc(Cl)cc(Cl)c3)(C(F)(F)F)C2)sc1C(=O)N(C)CC1CCCO1 (mixture of isomers) [Compound 1.110] | more than 80% |  |  |
| COc1ccc(-c2cc(C3=NOC(c4cc(Cl)cc(Cl)c4)(C(F)(F)F)C3)sc2C(=O)NCC(F)(F)F)cc1 (racemic) [Compound 1.75] |  | more than 80% |  |
| CCCc1cc(C2=NOC(c3cc(Cl)cc(Cl)c3)(C(F)(F)F)C2)sc1C(=O)NCC(F)(F)F (racemic) [Compound 1.78] | more than 80% |  |  |
| COc1cccc(-n2cc(-c3sc(C4=NOC(c5cc(Cl)cc(Cl)c5)(C(F)(F)F)C4)cc3C)nn2)c1 (racemic) [Compound 1.84] | more than 80% |  |  |
| COc1ccccc1-n1cc(-c2sc(C3=NOC(c4cc(Cl)cc(Cl)c4)(C(F)(F)F)C3)cc2C)nn1 (racemic) [Compound 1.85] |  | more than 80% |  |
| Cc1cc(C2=NOC(c3cc(Cl)cc(Cl)c3)(C(F)(F)F)C2)sc1C(=O)NCC(=O)N(C)C (racemic) [Compound 1.86] | more than 80% |  |  |
| Cc1cc(C2=NOC(c3cc(Cl)cc(Cl)c3)(C(F)(F)F)C2)sc1C(=O)Nc1nc(-c2ccccc2)ns1 (racemic) [Compound 1.99] | more than 80% |  |  |
| Cc1cc(C2=NOC(c3cc(Cl)cc(Cl)c3)(C(F)(F)F)C2)sc1C(=O)N1CCOCC1 (racemic) [Compound 1.102] | more than 80% |  |  |
| COCCNC(=O)c1sc(C2=NOC(c3cc(Cl)cc(Cl)c3)(C(F)(F)F)C2)cc1C (racemic) [Compound 1.105] | more than 80% |  |  |
| Cc1cc(C2=NOC(c3cc(Cl)cc(Cl)c3)(C(F)(F)F)C2)sc1C(=O)NCc1ccc(Cl)nc1 (racemic) [Compound 1.106] | more than 80% |  |  |
| Cc1cc(C2=NOC(c3cc(Cl)cc(Cl)c3)(C(F)(F)F)C2)sc1C(=O)NCc1ccco1 (racemic) [Compound 1.107] | more than 80% |  |  |
| Cc1cc(C2=NOC(c3cc(Cl)cc(Cl)c3)(C(F)(F)F)C2)sc1C(=O)NCc1cccs1 (racemic) [Compound 1.108] | more than 80% | more than 80% |  |
| CNC(=O)CNC(=O)c1sc(C2=NOC(c3cc(Cl)cc(Cl)c3)(C(F)(F)F)C2)cc1C (racemic) [Compound 1.112] | more than 80% | more than 80% |  |
| COC(=O)CN(C)C(=O)c1sc(C2=NOC(c3cc(Cl)cc(Cl)c3)(C(F)(F)F)C2)cc1C (racemic) [Compound 1.114] | more than 80% |  |  |
| FC(F)(F)C1(c2cc(Cl)cc(Cl)c2)CC(c2ccc(Br)s2)=NO1 (stereo not drawn) [Compound 1.1] | more than 80% | more than 80% |  |
| FC(F)(F)C1(c2cc(Cl)cc(Cl)c2)CC(c2cnc(-n3cncn3)s2)=NO1 (stereo not drawn) [Compound 1.4] | more than 80% |  |  |
| O=C(NCC(F)(F)F)c1cnc(C2=NOC(c3cc(Cl)cc(Cl)c3)(C(F)(F)F)C2)s1 (stereo not drawn) [Compound 1.5] | more than 80% |  |  |
| O=C(NCc1ccccn1)c1ccc(C2=NOC(c3cc(Cl)cc(Cl)c3)(C(F)(F)F)C2)s1 (stereo not drawn) [Compound 1.6] | more than 80% |  |  |
| O=C(NCC(F)(F)F)c1ccc(C2=NOC(c3cc(Cl)cc(Cl)c3)(C(F)(F)F)C2)s1 (stereo not drawn) [Compound 1.7] | more than 80% |  |  |
| FC(F)(F)C1(c2cc(Cl)cc(Cl)c2)CC(c2ccc(Br)o2)=NO1 (stereo not drawn) [Compound 1.13] | more than 80% | more than 80% |  |
| FC(F)(F)C1(c2cc(Cl)cc(Cl)c2)CC(c2ccc(-n3cncn3)o2)=NO1 (stereo not drawn) [Compound 1.14] | more than 80% | more than 80% |  |
| Cc1cc(C(=O)NCc2ccccn2)sc1C1=NOC(c2cc(Cl)cc(Cl)c2)(C(F)(F)F)C1 (stereo not drawn) [Compound 1.19] | more than 80% | more than 80% |  |
| O=C(NCc1ccccn1)c1sc(C2=NOC(c3cc(Cl)cc(Cl)c3)(C(F)(F)F)C2)cc1-c1ccccc1 (stereo not drawn) [Compound 1.20] | more than 80% |  |  |
| O=C(NCC(F)(F)F)c1sc(C2=NOC(c3cc(Cl)cc(Cl)c3)(C(F)(F)F)C2)cc1-c1ccccc1 (stereo not drawn) [Compound 1.21] | more than 80% | more than 80% |  |
| O=C(NCC(F)(F)F)c1sc(C2=NOC(c3cc(Cl)cc(Cl)c3)(C(F)(F)F)C2)cc1Br (stereo not drawn) [Compound 1.23] | more than 80% | more than 80% |  |
| O=C(NCc1ccccn1)c1sc(C2=NOC(c3cc(Cl)cc(Cl)c3)(C(F)(F)F)C2)cc1Cl (stereo not drawn) [Compound 1.25] | more than 80% |  |  |
| C#CCNC(=O)c1sc(C2=NOC(c3cc(Cl)cc(Cl)c3)(C(F)(F)F)C2)cc1C (stereo not drawn) [Compound 1.26] | more than 80% |  |  |
| Cc1cc(C2=NOC(c3cc(Cl)cc(Cl)c3)(C(F)(F)F)C2)sc1C(=O)Nc1nccs1 (stereo not drawn) [Compound 1.27] | more than 80% | more than 80% |  |

| SMILES | efficacy (EC80) [1] | efficacy (EC80) [2] | efficacy (EC90) [3] |
| --- | --- | --- | --- |
| Cc1cc(C2=NOC(c3cc(Cl)cc(Cl)c3)(C(F)(F)F)C2)sc1C(=O)NCC1CCCO1 (stereo not drawn) [Compound 1.29] | more than 80% | more than 80% |  |
| Cc1cc(C2=NOC(c3cc(Cl)cc(Cl)c3)(C(F)(F)F)C2)sc1C(N)=O (stereo not drawn) [Compound 1.30] | more than 80% | more than 80% |  |
| Cc1cc(C2=NOC(c3cc(Cl)cc(Cl)c3)(C(F)(F)F)C2)sc1C(=O)NCc1ccncc1 (stereo not drawn) [Compound 1.32] | more than 80% | more than 80% |  |
| Cc1cc(C2=NOC(c3cc(Cl)cc(Cl)c3)(C(F)(F)F)C2)sc1C(=O)Nc1ccncc1 (stereo not drawn) [Compound 1.33] | more than 80% | more than 80% |  |
| Cc1cc(C2=NOC(c3cc(Cl)cc(Cl)c3)(C(F)(F)F)C2)sc1C(=O)Nc1cccnc1 (stereo not drawn) [Compound 1.35] | more than 80% | more than 80% |  |
| CCNC(=O)CNC(=O)c1sc(C2=NOC(c3cc(Cl)cc(Cl)c3)(C(F)(F)F)C2)cc1C (stereo not drawn) [Compound 1.47] | more than 80% | more than 80% |  |
| Cc1cc(C2=NOC(c3cc(Cl)cc(Cl)c3)(C(F)(F)F)C2)sc1C(=O)NCC(=O)NCc1ccccn1 (stereo not drawn) [Compound 1.50] | more than 80% |  |  |
| C#CCNC(=O)Cn1cc(-c2sc(C3=NOC(c4cc(Cl)cc(Cl)c4)(C(F)(F)F)C3)cc2C)nn1 (stereo not drawn) [Compound 1.54] | more than 80% |  |  |
| Cc1cc(C2=NOC(c3cc(Cl)cc(Cl)c3)(C(F)(F)F)C2)sc1C(=O)Nc1nc(C(F)(F)F)c(C#N)s1 (stereo not drawn) [Compound 1.57] | more than 80% |  |  |
| CCOC(=O)c1csc(NC(=O)c2sc(C3=NOC(c4cc(Cl)cc(Cl)c4)(C(F)(F)F)C3)cc2C)n1 (stereo not drawn) [Compound 1.58] | more than 80% | more than 80% | more than 90% |
| Cc1cc(C2=NOC(c3cc(Cl)cc(Cl)c3)(C(F)(F)F)C2)sc1-c1cn(Cc2ccccn2)nn1 (stereo not drawn) [Compound 1.59] | more than 80% | more than 80% |  |
| Cc1cc(C2=NOC(c3cc(Cl)cc(Cl)c3)(C(F)(F)F)C2)sc1C(=O)Nc1nc(C(F)(F)F)co1 (stereo not drawn) [Compound 1.60] | more than 80% | more than 80% |  |
| Cc1cc(C2=NOC(c3cc(Cl)cc(Cl)c3)(C(F)(F)F)C2)sc1-c1cn(Cc2cncnc2)nn1 (stereo not drawn) [Compound 1.68] | more than 80% |  |  |
| Cc1cc(C2=NOC(c3cc(Cl)cc(Cl)c3)(C(F)(F)F)C2)sc1-c1cn(Cc2cccnc2)nn1 (stereo not drawn) [Compound 1.69] | more than 80% |  |  |
| Cc1cc(C2=NOC(c3cc(Cl)cc(Cl)c3)(C(F)(F)F)C2)sc1-c1cn(Cc2ccncc2)nn1 (stereo not drawn) [Compound 1.70] | more than 80% |  |  |
| O=C(NCC(F)(F)F)c1sc(C2=NOC(c3cc(Cl)cc(Cl)c3)(C(F)(F)F)C2)cc1-c1ccc(C(F)(F)F)cc1 (stereo not drawn) [Compound 1.72] |  | more than 80% |  |
| O=C(NCC(F)(F)F)c1sc(C2=NOC(c3cc(Cl)cc(Cl)c3)(C(F)(F)F)C2)cc1-c1cccc(Cl)c1 (stereo not drawn) [Compound 1.76] | more than 80% |  |  |
| Cc1cc(C2=NOC(c3cc(Cl)cc(Cl)c3)(C(F)(F)F)C2)sc1C(=O)NC(C)C(=O)NCC(F)(F)F (stereo not drawn) [Compound 1.88] | more than 80% |  |  |
| Cc1cc(C2=NOC(c3cc(Cl)cc(Cl)c3)(C(F)(F)F)C2)sc1C(=O)NC1(C(=O)NCC(F)(F)F)CC1 (stereo not drawn) [Compound 1.90] | more than 80% | more than 80% |  |
| Cc1cc(C2=NOC(c3cc(Cl)cc(Cl)c3)(C(F)(F)F)C2)sc1C(=O)NC(C)(C)C(=O)NCC(F)(F)F (stereo not drawn) [Compound 1.91] | more than 80% |  |  |
| O=C(CNC(=O)c1sc(C2=NOC(c3cc(Cl)cc(Cl)c3)(C(F)(F)F)C2)cc1Br)NCC(F)(F)F (stereo not drawn) [Compound 1.92] | more than 80% |  |  |
| N#Cc1ccc(-c2cc(C3=NOC(c4cc(Cl)cc(Cl)c4)(C(F)(F)F)C3)sc2C(=O)NCC(F)(F)F)cc1 (stereo not drawn) [Compound 1.93] | more than 80% |  |  |
| CSCCNC(=O)c1sc(C2=NOC(c3cc(Cl)cc(Cl)c3)(C(F)(F)F)C2)cc1C (stereo not drawn) [Compound 1.104] | more than 80% | more than 80% |  |
| CCNC(=O)c1sc(C2=NOC(c3cc(Cl)cc(Cl)c3)(C(F)(F)F)C2)cc1C (stereo not drawn) [Compound 1.109] | more than 80% | more than 80% |  |
| COC(=O)CNC(=O)c1sc(C2=NOC(c3cc(Cl)cc(Cl)c3)(C(F)(F)F)C2)cc1C (stereo not drawn) [Compound 1.113] | more than 80% |  |  |
| Cc1cc(C2=NOC(c3cc(F)cc(F)c3)(C(F)(F)F)C2)sc1C(=O)NCC(=O)NCC(F)(F)F (stereo not drawn) [Compound 2.1] | more than 80% |  |  |
| Cc1cc(C2=NOC(c3cccc(Cl)c3)(C(F)(F)F)C2)sc1C(=O)NCC(=O)NCC(F)(F)F (stereo not drawn) [Compound 2.2] | more than 80% | more than 80% |  |
